No constants are given. Whether binding was seen depends on the method and setting. Binding seen in cells or lysates may run through a third protein. Some results given as binding are weak or reduced against the parent protein; the word gives no strength.
Target: T1, Xeroderma Pigmentosum Complementation Group C (XPC) protein (mouse (endogenous in Th17 cells)) (UniProt P51612)
T1 sequence: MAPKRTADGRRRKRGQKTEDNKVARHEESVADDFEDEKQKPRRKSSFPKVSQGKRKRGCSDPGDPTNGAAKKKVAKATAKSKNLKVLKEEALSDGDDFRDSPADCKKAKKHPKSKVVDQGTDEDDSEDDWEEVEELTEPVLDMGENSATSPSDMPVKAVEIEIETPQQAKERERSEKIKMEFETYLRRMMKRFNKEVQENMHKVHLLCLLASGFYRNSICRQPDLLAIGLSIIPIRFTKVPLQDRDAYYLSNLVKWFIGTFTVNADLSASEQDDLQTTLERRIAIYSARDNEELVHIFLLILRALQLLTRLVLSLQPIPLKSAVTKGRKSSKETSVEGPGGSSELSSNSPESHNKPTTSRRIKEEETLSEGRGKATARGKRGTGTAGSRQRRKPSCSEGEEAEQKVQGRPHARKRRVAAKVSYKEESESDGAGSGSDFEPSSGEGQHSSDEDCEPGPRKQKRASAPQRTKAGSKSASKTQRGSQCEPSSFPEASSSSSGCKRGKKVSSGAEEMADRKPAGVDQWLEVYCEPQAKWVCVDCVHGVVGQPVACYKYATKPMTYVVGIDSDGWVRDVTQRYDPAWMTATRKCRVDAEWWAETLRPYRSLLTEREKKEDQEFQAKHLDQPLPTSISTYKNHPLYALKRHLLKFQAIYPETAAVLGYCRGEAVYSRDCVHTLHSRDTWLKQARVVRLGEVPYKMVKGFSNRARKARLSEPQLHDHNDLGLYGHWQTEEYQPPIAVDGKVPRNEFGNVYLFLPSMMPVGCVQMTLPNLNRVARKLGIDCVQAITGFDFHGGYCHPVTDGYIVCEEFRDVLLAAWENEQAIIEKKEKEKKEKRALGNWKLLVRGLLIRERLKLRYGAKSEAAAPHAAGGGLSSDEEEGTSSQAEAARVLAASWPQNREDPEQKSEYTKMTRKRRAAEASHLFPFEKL
Assay: co-IP

Sequences of proteins named here, by UniProt entry; tags and fusion partners are left off.
UniProt O08760: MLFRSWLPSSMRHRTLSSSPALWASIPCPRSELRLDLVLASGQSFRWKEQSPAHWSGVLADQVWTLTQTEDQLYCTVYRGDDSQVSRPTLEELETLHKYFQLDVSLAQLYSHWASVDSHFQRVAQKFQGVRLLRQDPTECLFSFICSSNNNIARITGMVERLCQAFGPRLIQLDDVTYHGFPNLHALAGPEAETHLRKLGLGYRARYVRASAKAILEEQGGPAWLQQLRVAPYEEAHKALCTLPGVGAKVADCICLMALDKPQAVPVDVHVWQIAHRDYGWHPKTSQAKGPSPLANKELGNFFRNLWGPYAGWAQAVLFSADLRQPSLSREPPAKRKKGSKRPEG

binding: binds
Substance: OGG1 (from UniProt O08760 1-345) (enzyme)

Source: paper doi:10.1101/2024.09.13.612834
